“And” between values parts separate entries of the source, which are not always exact repeats. Equal values may be shown once. Where a name gives a salt, the structure may show the parent alone. This is one part of the list. Single values are uncertain here, since repeats match poorly.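 JEG3 cells stably express tetracycline-inducible wild-type human LRH-1, a highly sumoylated nuclear receptor. SUMO-sensitive transcripts APOC3 and MUC1, increased by SUMO-deficient LRH-1 or UBC9 knockdown, were quantified by RT-qPCR relative to TBP and DMSO controls. Primary hits had robust Z-scores above +2 or below -2, before toxicity and TBP filtering.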
The molecules below were run on JEG3 expressing hLRH-1 (assay: MUC1 transcript change (ddCt vs TBP and DMSO), Z-score over library; higher = higher MUC1 expression). Settings: 10 µM; time (hr): 24.

SMILES | MUC1 transcript change (Z-score)
CN(C)CCOC(c1ccc(Cl)cc1)c1ccccn1 (stereo unspecified) [carbinoxamine maleate] | 0.429
CC(C)[C@H](N)C(=O)OCC(CO)OCn1cnc2c(O)nc(N)nc21 (stereo partly specified) [valganciclovir hydrochloride] | 0.28
NCc1ccc(S(N)(=O)=O)cc1 [mafenide hydrochloride] | -0.893
CCOC(=O)C(C)(C)Oc1ccc(Cl)cc1 [Clofibrate] | 0.431
CCN(CC)C(=O)/C(C#N)=C/c1cc(O)c(O)c([N+](=O)[O-])c1 [entacapone] | 0.621
Cn1c([N+](=O)[O-])cc[n+]1C [dimetridazole] | 0.484
O=C1OC(CN2CCOCC2)CN1/N=C/c1ccc([N+](=O)[O-])o1 (stereo unspecified) [furaltadone] | 0.897
CCCCOCCOCCOCc1cc2c(cc1CCC)OCO2 [piperonyl butoxide] | 0.209
CCCCCCCCCCCCCCCC(=O)NCCO [palmidrol] | 1.15
C=CC1=C(C(=O)O)N2C(=O)[C@@H](NC(=O)/C(=N\O)c3csc(N)n3)[C@H]2SC1 [cefdinir] | -0.667
CCCCC1C(=O)N(c2ccccc2)N(c2ccc(O)cc2)C1=O (stereo unspecified) [oxyphenbutazone] | -1.46
NC12CC3CC(CC(C3)C1)C2 [Amantadine hydrochloride] | 1.47
CO[C@H]1O[C@@H]2O[C@@]3(C)CC[C@H]4[C@H](C)CC[C@@H]([C@H]1C)[C@@]24OO3 [artemether] | -0.123
C[C@@H](c1ncncc1F)[C@](O)(Cn1cncn1)c1ccc(F)cc1F [voriconazole] | 0.139
O=C(C1CCCCC1)N1CC(=O)N2CCc3ccccc3C2C1 (stereo unspecified) [praziquantel] | 0.442
C[C@H](CCC(=O)O)[C@H]1CCC2C3C(=O)CC4CC(=O)CC[C@]4(C)C3CC(=O)[C@@]21C (stereo partly specified) [sodium dehydrocholate] | 0.505
CC1CC(OC(=O)c2ccccc2O)CC(C)(C)C1 (stereo unspecified) [homosalate] | 0.695
CCC1(c2ccccc2)C(=O)NCNC1=O [Primidone] | 0.651
CC(=O)NO [acetohydroxamic acid] | 0.778
O=C(O)c1cc(-c2ccc(F)cc2F)ccc1O [diflunisal] | -0.163
CC(C)(Oc1ccc(Cl)cc1)C(=O)O [clofibric acid] | 0.273

Filtered by structure, the compounds so far containing four or more nitrogen atoms
SMILES | MUC1 transcript change (Z-score)
CC(C)[C@H](N)C(=O)OCC(CO)OCn1cnc2c(O)nc(N)nc21 (stereo partly specified) [valganciclovir hydrochloride] | 0.28
O=C1OC(CN2CCOCC2)CN1/N=C/c1ccc([N+](=O)[O-])o1 (stereo unspecified) [furaltadone] | 0.897
C=CC1=C(C(=O)O)N2C(=O)[C@@H](NC(=O)/C(=N\O)c3csc(N)n3)[C@H]2SC1 [cefdinir] | -0.667
C[C@@H](c1ncncc1F)[C@](O)(Cn1cncn1)c1ccc(F)cc1F [voriconazole] | 0.139

(further entries)

SMILES | MUC1 transcript change (Z-score)
Cn1cnc([N+](=O)[O-])c1Sc1[nH]cnc2ncnc1-2 [Azathioprine] | 0.735
CC(C)(S)[C@@H](N)C(=O)O [penicillamine] | 0.321
CC(=O)CC(c1ccc([N+](=O)[O-])cc1)c1c(O)oc2ccccc2c1=O (stereo unspecified) [acenocoumarol] | 1.95
CCCCCCCCCCC[C@@H](C[C@@H]1OC(=O)[C@H]1CCCCCC)OC(=O)[C@H](CC(C)C)NC=O [orlistat] | 0.283
CC[C@H]1OC(=O)[C@H](C)[C@@H](O[C@H]2C[C@@](C)(OC)[C@@H](O)[C@H](C)O2)[C@H](C)[C@@H](O[C@@H]2O[C@H](C)C[C@H](N(C)C)[C@H]2O)[C@](C)(O)C[C@@H](C)[C@@H]2N[C@@H](COCCOC)O[C@H]([C@H]2C)[C@]1(C)O [dirithromycin] | -0.475
O=C1CN2Cc3c(ccc(Cl)c3Cl)N=C2N1 [anagrelide hydrochloride] | -0.606
COc1ccc2cc3[n+](cc2c1OC)CCc1cc2c(cc1-3)OCO2 [berberine chloride] | -0.493
O=C1O[C@H](CO)[C@@H](O)[C@H](O)[C@H]1O [gluconolactone] | 0.903
C[C@H](COc1ccccc1)N[C@H](C)[C@H](O)c1ccc(O)cc1 [isoxsuprine hydrochloride] | 0.313
CCCN(CCC)C(=O)C(CCC(=O)O)NC(=O)c1ccccc1 (stereo unspecified) [Proglumide] | -0.725
COc1cc(OC)c(C(=O)CCCN2CCCC2)c(OC)c1 [buflomedil hydrochloride] | -0.117
COc1cc2nc(N3CCN(C(=O)C4CCCO4)CC3)nc(N)c2cc1OC (stereo unspecified) [terazosin hydrochloride] | -0.226
CS(=O)(=O)OCCCCOS(C)(=O)=O [busulfan] | -0.33
CC(C)Oc1ccc2c(=O)cc(-c3ccccc3)oc2c1 [ipriflavone] | -1.49
COc1ccc2[nH]c(S(=O)Cc3ncc(C)c(OC)c3C)nc2c1 (stereo unspecified) [omeprazole] | 0.688 and 1.12
Oc1ccc(Cl)c2cccnc12 [cloxyquin] | 0.141
Cn1ccnc1S [methimazole] | -0.66
CC[C@H]1OC(=O)[C@H](C)[C@@H](O[C@H]2C[C@@](C)(OC)[C@@H](O)[C@H](C)O2)[C@H](C)[C@@H](O[C@@H]2O[C@H](C)C[C@H](N(C)C)[C@H]2O)[C@](C)(O)C[C@@H](C)C(=O)[C@H](C)[C@@H](O)[C@]1(C)O [erythromycin] | 0.238 and 0.344
CCC(=O)c1ccc(O)cc1 [paroxypropione] | 0.491
COc1ccc(C2CNC(=O)C2)cc1OC1CCCC1 (stereo unspecified) [Rolipram] | -1.2
COc1cc(Cc2cnc(N)nc2N)cc(OC)c1OC [Trimethoprim] | -0.405

SMILES | MUC1 transcript change (Z-score)
Cc1ccccc1N1C(=O)c2cc(S(N)(=O)=O)c(Cl)cc2NC1C (stereo unspecified) [metolazone] | 0.0537
C[C@H]1[C@H](OC(=O)CCC(=O)O)O[C@@H]2O[C@@]3(C)CC[C@H]4[C@H](C)CC[C@@H]1[C@@]24OO3 [artesunate] | -1.13
COCC1=C(C(=O)OC(C)OC(=O)OC(C)C)N2C(=O)[C@@H](NC(=O)/C(=N\OC)c3csc(N)n3)[C@H]2SC1 (stereo partly specified) [cefpodoxime proxetil] | 0.0465
C[C@H](Cn1cnc2c(N)ncnc21)OCP(=O)(O)O [tenofovir] | 1.23
Cc1c(NC(C)C)c(=O)n(-c2ccccc2)n1C [ramifenazone] | -0.0494
O=C(O)CN(CCN(CC(=O)O)CC(=O)O)CCN(CC(=O)O)CC(=O)O [pentetic acid] | -1.95
CCCCC(CC)CN1CN(CC(CC)CCCC)CC(C)(N)C1 (stereo unspecified) [hexetidine] | 0.276
C[C@@H]1CN(c2c(F)c(F)c3c(=O)c(C(=O)O)cn(C4CC4)c3c2F)C[C@H](C)N1 [orbifloxacin] | -0.176
OC(CCN1CCCCC1)(c1ccccc1)C1CCCCC1 (stereo unspecified) [Trihexyphenidyl hydrochloride] | -0.0164
C[C@H]1CC2C3CCC4=CC(=O)C=C[C@]4(C)[C@@]3(F)[C@@H](O)C[C@]2(C)[C@@]1(O)C(=O)CO (stereo partly specified) [betamethasone] | -0.559
Cc1ncc([N+](=O)[O-])n1CC(O)CCl (stereo unspecified) [ornidazole] | 0.501
OCCOCCN1CCN(C2=Nc3ccccc3Sc3ccccc32)CC1 [quetiapine] | -0.815
COc1ccc(/C=C/C(=O)Nc2ccccc2C(=O)O)cc1OC [tranilast] | -0.448
Cc1nc(N)cc(C[n+]2csc(CCO)c2C)n1 [thiamine] | 0.0333
C#C[C@]1(O)CC[C@H]2[C@@H]3CCc4cc(OC5CCCC5)ccc4[C@H]3CC[C@@]21C [quinestrol] | 0.299
NS(=O)(=O)c1cc2c(cc1Cl)NC=NS2(=O)=O [Chlorothiazide] | 0.287
Cc1cc2cc3c(C)cc(=O)oc3c(C)c2o1 [trioxsalen] | -1.42
NS(=O)(=O)c1cc(C(=O)O)c(NCc2ccco2)cc1Cl [furosemide] | 0.108
CNS(=O)(=O)Cc1ccc2[nH]cc(CCN(C)C)c2c1 [sumatriptan succinate] | 0.903
CN(C)CC(c1ccc(O)cc1)C1(O)CCCCC1 (stereo unspecified) [desvenlafaxine succinate] | -0.421
CCCCC(CC)COc1ccc(-c2nc(-c3ccc(OC)cc3)nc(-c3ccc(OCC(CC)CCCC)cc3O)n2)c(O)c1 (stereo unspecified) [bemotrizinol] | 0.99

SMILES | MUC1 transcript change (Z-score)
CC(CN(C)C)CN1c2ccccc2CCc2ccccc21 (stereo unspecified) [trimipramine maleate] | -0.848
CN1CCCN=C1COC(=O)C(O)(c1ccccc1)C1CCCCC1 (stereo unspecified) [oxyphencyclimine hydrochloride] | 1.08
O=c1n(CCCN2CCN(c3cccc(Cl)c3)CC2)nc2ccccn12 [Trazodone hydrochloride] | -0.381
O=C(OCc1ccccc1)c1ccccc1 [benzyl benzoate] | 0.24
COc1ccc(Cc2cnc(N)nc2N)cc1OC [diaveridine] | -1.22
Cc1c(N(C)CS(=O)(=O)O)c(=O)n(-c2ccccc2)n1C [dipyrone] | 0.38
C#C[C@]1(O)CCC2C3CCC4=C(CCC(=O)C4)C3CC[C@@]21C (stereo partly specified) [norethynodrel] | -0.685
CCCCNc1ccc(C(=O)OCCOCCOCCOCCOCCOCCOCCOCCOCCOC)cc1 [benzonatate] | 0.365
O=P(O)(O)C(O)(Cc1cccnc1)P(=O)(O)O [risedronate sodium] | -0.357
COCCCOc1cc(C[C@@H](C[C@H](N)[C@@H](O)C[C@H](C(=O)NCC(C)(C)C(N)=O)C(C)C)C(C)C)ccc1OC [aliskiren hemifumarate] | 0.969
CC(C)CC(N)=O [isovaleramide] | 0.0541
Cc1onc(-c2c(Cl)cccc2Cl)c1C(=O)N[C@@H]1C(=O)N2[C@@H]1SC(C)(C)[C@@H]2C(=O)O [dicloxacillin sodium] | -0.153
C[C@H](CCC(=O)O)[C@H]1CCC2C3C(CC[C@@]21C)[C@@]1(C)CC[C@@H](O)C[C@H]1C[C@@H]3O (stereo partly specified) [ursodiol] | 0.582
O=C(CCCl)NCCc1ccccc1 [fenaclon] | -0.463
CCCCOC(=O)c1ccc(N)cc1 [butamben] | -0.751
NNC(=O)c1ccncc1.Nc1ccc(C(=O)O)c(O)c1 [pasiniazid] | -0.131
O=C(O)c1cc(N=Nc2ccc(S(=O)(=O)Nc3ccccn3)cc2)ccc1O [sulfasalazine] | 1.2
CCCCC(=O)N(Cc1ccc(-c2ccccc2-c2nn[nH]n2)cc1)[C@H](C(=O)O)C(C)C [valsartan] | 0.399

For convenience, 3 of the compounds above.
SMILES | MUC1 transcript change (Z-score)
O=c1n(CCCN2CCN(c3cccc(Cl)c3)CC2)nc2ccccn12 [Trazodone hydrochloride] | -0.381
O=C(OCc1ccccc1)c1ccccc1 [benzyl benzoate] | 0.24
COc1ccc(Cc2cnc(N)nc2N)cc1OC [diaveridine] | -1.22
